Test results taken from article PMC2613885.
Results are given in words; binding and its absence hold for the method and conditions named. Binding seen in cells or lysates may run through a third protein. Some results given as binding are weak or reduced against the parent protein; the word gives no strength. Sequences can lack the tags named with a protein.

Amino acid sequences for entries named in this document (tags omitted). Residues count along the entry.
UniProt O55005, residues 26-1651: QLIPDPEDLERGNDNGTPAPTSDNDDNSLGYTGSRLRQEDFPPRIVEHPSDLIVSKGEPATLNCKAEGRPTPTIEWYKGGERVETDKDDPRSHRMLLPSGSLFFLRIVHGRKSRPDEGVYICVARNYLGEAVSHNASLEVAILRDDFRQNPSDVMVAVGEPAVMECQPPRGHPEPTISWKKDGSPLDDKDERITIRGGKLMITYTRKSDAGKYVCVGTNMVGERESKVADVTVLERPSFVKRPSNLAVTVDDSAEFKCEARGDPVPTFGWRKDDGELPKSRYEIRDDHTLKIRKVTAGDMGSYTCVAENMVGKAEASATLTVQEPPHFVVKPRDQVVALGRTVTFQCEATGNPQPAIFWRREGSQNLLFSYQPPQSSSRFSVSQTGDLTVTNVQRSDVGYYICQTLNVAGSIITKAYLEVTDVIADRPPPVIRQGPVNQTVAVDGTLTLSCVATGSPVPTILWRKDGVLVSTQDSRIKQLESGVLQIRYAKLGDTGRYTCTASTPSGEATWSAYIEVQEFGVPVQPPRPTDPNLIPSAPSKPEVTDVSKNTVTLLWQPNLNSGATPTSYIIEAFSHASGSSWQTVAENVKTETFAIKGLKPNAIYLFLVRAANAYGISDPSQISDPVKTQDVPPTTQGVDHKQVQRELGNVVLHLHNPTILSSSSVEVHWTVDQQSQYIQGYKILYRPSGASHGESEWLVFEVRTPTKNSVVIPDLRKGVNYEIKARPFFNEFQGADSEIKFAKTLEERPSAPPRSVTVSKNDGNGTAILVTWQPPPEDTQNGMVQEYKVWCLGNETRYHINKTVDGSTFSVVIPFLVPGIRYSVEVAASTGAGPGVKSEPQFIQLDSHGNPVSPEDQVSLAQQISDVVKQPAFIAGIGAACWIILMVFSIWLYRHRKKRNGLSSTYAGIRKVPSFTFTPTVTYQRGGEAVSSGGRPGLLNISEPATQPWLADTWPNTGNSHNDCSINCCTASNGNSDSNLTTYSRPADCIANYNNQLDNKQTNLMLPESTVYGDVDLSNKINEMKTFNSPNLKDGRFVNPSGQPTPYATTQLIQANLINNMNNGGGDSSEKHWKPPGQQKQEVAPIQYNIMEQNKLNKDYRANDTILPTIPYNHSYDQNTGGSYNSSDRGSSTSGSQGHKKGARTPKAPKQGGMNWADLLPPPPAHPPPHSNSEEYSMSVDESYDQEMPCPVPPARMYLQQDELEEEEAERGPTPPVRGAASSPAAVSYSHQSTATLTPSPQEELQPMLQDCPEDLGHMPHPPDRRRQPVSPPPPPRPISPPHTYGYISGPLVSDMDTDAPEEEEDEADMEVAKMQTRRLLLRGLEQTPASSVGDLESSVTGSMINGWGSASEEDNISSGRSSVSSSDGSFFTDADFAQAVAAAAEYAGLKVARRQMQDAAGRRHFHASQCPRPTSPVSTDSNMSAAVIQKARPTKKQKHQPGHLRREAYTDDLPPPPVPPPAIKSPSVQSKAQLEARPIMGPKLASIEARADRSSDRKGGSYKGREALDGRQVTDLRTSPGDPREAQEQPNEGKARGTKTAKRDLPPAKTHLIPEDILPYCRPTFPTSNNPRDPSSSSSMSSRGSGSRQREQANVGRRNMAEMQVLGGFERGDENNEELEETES

Biological target: T1, V5-tagged human Robo4 (human) (UniProt Q8WZ75)
T1 sequence: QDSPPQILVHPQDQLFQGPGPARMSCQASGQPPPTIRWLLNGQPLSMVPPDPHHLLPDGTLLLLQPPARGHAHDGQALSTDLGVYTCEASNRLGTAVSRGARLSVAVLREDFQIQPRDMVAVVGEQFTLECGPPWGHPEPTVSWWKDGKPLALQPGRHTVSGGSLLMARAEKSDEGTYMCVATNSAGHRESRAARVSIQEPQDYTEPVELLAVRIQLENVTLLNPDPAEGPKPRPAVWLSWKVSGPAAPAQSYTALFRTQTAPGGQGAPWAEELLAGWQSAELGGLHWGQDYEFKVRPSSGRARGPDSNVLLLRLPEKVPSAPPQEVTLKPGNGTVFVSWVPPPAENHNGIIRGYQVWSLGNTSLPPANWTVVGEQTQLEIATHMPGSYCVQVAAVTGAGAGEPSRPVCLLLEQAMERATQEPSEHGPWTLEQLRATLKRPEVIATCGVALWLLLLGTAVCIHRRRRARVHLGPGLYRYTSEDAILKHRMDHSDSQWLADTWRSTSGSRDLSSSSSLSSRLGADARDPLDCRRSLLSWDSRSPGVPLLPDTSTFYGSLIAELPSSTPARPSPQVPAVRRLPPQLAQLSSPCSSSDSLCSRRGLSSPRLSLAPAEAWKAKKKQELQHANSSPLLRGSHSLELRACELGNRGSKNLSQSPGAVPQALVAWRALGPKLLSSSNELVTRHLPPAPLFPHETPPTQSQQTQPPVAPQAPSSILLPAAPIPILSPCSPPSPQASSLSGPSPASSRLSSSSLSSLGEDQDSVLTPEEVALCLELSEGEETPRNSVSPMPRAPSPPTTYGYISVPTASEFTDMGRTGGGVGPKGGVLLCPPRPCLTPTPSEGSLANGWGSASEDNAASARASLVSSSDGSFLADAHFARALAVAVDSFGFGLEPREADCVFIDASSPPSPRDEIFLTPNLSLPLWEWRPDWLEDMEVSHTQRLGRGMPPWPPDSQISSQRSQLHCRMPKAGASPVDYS
Assay: co-IP; HA-rat Robo1 with V5-human Robo4 (IP V5, blot HA) or with mouse Robo4 (IP HA, blot mouse Robo4 antibody), transfected alone or together in HEK293T; RIPA lysates

Question: With “HA-tagged rat Robo1 (from UniProt O55005 26-1651) (receptor)” as the substance, how does the binding read?
Answer: binds
